Measured values from paper PMC4974071.
These are yes or no findings as the source states them, for the method shown. Binding seen in cells or lysates may run through a third protein. Some entries that bind do so weakly or less than the wild type.

Molecular target: T1, BCL11A-S (short isoform of BCL11A), wild-type (human) (UniProt Q9H165)
T1 sequence: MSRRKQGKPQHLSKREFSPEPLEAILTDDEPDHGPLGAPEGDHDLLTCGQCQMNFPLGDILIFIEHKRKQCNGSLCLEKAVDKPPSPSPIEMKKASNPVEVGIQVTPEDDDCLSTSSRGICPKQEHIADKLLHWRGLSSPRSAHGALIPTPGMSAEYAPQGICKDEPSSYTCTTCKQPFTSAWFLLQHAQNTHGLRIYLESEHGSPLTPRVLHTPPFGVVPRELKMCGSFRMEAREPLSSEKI
Assay: FRET or BRET; BRET in live HEK293 cells co-transfected with 6 fmol Renilla luciferase fusion (donor) and 6 fmol YFP fusion (acceptor) plasmid, 48 hr, then Enduren 60 uM for 4 hr; mean corrected BRET ratios; nuclear-targeted luciferase or YFP as controls

- binding: binds
B1: BCL11A-S (short isoform of BCL11A), wild-type (protein, UniProt Q9H165-3 1-243)
chain: MSRRKQGKPQHLSKREFSPEPLEAILTDDEPDHGPLGAPEGDHDLLTCGQCQMNFPLGDILIFIEHKRKQCNGSLCLEKAVDKPPSPSPIEMKKASNPVEVGIQVTPEDDDCLSTSSRGICPKQEHIADKLLHWRGLSSPRSAHGALIPTPGMSAEYAPQGICKDEPSSYTCTTCKQPFTSAWFLLQHAQNTHGLRIYLESEHGSPLTPRVLHTPPFGVVPRELKMCGSFRMEAREPLSSEKI
